According to the supplement of paper PMC12819154, “High-throughput peptide-centric local stability assay extends protein–ligand identification to membrane proteins, tissues and bacteria” (Nature Structural & Molecular Biology, 2025):
The other results are listed elsewhere or left out. Small differences around the control level are noise.

Sequences of proteins named here, by UniProt entry; tags and fusion partners are left off. A change or cut given only in a name is not applied to a line headed by its entry.
UniProt Q9CYQ7: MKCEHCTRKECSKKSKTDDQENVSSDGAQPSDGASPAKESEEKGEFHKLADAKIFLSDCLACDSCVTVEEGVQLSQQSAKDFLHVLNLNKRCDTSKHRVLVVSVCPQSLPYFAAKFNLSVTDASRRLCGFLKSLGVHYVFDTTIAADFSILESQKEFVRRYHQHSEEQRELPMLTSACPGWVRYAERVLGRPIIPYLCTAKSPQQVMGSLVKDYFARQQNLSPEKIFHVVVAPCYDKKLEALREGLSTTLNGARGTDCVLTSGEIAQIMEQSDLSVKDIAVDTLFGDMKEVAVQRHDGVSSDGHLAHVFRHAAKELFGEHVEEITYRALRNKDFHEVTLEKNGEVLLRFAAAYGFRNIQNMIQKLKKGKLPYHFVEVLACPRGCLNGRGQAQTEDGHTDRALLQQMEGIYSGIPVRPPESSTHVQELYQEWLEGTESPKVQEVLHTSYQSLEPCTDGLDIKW
UniProt Q9CZH3: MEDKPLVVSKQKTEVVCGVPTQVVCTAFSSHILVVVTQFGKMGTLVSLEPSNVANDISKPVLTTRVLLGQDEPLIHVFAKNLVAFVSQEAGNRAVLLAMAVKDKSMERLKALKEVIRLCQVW
UniProt Q9CYW4: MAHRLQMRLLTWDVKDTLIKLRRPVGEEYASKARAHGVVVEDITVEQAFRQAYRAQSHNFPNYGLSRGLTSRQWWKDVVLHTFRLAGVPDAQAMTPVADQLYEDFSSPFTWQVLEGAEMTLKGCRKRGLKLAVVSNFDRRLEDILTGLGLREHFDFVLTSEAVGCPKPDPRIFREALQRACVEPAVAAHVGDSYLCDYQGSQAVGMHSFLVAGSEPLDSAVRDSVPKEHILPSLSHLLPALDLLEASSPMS
UniProt Q9CZJ9: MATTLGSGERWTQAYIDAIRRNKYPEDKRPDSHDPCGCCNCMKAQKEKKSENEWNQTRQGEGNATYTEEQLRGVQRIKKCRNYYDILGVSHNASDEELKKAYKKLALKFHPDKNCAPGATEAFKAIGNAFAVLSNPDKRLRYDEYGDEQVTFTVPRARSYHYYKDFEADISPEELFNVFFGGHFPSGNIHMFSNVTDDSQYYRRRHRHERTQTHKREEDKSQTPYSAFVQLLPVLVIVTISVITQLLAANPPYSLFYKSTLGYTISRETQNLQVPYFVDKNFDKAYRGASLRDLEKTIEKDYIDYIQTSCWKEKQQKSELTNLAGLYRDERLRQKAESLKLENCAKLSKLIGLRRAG
UniProt Q9CX48: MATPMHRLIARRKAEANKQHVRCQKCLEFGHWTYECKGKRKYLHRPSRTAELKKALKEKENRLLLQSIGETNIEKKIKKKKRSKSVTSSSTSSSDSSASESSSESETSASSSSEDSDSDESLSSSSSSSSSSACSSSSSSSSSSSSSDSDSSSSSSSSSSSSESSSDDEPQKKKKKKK
UniProt Q9CZY3: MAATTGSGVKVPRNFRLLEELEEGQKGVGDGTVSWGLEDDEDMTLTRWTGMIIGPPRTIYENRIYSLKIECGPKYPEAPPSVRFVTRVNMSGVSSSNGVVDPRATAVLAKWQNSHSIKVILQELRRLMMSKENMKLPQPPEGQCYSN
UniProt Q9CYZ6: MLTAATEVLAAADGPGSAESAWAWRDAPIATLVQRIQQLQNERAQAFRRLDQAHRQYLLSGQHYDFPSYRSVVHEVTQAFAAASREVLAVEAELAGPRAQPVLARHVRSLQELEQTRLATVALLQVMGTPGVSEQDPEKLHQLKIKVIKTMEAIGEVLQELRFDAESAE
UniProt Q9CZX9, whole entry: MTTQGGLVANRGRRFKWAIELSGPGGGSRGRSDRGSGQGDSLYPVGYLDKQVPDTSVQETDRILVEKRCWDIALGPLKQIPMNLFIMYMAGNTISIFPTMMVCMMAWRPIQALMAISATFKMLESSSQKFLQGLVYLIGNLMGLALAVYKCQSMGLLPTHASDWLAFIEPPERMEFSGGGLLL
UniProt Q9CR59: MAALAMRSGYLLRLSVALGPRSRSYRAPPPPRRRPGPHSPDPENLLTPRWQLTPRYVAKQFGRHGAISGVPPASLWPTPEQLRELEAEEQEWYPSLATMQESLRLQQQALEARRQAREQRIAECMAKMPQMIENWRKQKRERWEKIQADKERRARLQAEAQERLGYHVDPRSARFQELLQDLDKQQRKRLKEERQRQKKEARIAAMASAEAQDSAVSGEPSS
UniProt Q9D0D5: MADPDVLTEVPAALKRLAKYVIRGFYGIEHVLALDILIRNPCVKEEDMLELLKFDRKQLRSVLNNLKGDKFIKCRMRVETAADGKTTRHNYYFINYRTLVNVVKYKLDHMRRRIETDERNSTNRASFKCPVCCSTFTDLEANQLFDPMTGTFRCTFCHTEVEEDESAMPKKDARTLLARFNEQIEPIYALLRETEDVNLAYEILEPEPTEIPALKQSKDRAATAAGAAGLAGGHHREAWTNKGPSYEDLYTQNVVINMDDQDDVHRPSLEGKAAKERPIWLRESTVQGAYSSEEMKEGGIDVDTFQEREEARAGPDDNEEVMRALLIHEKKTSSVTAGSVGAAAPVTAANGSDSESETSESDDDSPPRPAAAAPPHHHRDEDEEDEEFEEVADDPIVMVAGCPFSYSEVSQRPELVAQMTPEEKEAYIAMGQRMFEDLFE
UniProt Q9CZG9: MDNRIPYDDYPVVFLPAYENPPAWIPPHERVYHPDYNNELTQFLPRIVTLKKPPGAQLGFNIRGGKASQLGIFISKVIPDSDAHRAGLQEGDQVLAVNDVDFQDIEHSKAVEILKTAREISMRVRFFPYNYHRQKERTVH
UniProt Q9CY45: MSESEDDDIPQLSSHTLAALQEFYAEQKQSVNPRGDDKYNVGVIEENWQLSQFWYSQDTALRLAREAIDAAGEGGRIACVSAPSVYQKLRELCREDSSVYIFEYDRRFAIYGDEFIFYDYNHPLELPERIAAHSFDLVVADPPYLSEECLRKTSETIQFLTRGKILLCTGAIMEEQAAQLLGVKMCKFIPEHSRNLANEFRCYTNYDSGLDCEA
UniProt Q9CR89: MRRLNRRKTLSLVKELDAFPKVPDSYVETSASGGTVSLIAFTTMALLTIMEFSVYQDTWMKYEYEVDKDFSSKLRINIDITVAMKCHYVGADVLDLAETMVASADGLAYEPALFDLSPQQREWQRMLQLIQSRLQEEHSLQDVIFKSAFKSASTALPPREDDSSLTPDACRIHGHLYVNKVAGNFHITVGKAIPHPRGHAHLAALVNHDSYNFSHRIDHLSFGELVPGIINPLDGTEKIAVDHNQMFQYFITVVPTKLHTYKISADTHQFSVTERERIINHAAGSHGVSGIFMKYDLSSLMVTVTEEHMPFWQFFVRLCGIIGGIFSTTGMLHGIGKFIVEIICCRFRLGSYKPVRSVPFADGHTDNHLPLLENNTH
UniProt Q9CR83: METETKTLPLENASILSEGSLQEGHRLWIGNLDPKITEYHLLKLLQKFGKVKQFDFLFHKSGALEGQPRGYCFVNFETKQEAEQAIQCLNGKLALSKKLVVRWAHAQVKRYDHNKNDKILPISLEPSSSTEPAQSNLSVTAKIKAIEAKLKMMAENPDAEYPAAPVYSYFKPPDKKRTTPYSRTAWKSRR
UniProt Q9CZ57: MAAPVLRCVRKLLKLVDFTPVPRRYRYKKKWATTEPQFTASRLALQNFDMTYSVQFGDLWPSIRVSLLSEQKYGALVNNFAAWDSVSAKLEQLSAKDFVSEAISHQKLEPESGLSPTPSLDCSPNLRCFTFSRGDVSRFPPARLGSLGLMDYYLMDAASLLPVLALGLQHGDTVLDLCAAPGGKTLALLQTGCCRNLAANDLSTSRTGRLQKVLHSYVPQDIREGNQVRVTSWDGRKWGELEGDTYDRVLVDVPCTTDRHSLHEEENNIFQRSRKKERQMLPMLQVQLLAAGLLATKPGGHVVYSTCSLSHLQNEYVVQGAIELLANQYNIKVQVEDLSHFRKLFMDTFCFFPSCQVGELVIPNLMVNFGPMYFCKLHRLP
UniProt Q9CY16: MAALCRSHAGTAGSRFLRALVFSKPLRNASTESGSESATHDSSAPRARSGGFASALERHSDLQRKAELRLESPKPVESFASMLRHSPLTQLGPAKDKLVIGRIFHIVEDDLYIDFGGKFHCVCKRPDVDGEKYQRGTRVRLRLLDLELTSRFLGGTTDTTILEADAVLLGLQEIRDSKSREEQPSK
UniProt Q9CX11: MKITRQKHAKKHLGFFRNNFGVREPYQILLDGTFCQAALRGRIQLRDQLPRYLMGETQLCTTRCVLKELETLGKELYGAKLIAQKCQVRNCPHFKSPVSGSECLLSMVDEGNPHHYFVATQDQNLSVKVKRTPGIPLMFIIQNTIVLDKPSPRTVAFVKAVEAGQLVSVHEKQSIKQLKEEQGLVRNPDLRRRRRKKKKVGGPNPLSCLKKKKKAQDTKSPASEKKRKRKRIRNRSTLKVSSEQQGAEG
UniProt Q9CXJ1: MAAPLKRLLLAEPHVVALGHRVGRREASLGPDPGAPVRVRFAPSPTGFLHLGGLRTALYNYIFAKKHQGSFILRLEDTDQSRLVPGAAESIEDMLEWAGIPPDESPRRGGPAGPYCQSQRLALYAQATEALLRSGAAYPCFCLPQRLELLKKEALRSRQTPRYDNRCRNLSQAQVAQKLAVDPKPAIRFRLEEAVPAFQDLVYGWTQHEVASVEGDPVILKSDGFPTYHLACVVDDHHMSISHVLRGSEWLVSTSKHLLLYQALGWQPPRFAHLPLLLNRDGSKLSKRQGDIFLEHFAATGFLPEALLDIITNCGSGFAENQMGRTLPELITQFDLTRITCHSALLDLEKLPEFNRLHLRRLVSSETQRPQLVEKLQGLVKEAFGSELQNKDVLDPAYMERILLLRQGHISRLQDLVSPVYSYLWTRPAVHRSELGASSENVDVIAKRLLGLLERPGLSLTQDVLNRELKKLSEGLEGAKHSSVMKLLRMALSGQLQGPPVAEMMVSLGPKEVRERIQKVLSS
UniProt Q9D0T2, whole entry: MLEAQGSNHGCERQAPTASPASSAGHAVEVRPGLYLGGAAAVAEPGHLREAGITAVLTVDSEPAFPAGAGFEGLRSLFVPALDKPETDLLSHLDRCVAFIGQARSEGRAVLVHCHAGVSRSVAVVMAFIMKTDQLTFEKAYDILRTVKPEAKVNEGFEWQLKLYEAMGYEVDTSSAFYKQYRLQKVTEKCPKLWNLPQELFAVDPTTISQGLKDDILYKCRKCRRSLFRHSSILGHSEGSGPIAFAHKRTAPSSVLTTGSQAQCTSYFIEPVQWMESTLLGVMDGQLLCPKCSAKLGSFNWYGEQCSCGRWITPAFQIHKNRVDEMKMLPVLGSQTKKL
UniProt Q9CWK3: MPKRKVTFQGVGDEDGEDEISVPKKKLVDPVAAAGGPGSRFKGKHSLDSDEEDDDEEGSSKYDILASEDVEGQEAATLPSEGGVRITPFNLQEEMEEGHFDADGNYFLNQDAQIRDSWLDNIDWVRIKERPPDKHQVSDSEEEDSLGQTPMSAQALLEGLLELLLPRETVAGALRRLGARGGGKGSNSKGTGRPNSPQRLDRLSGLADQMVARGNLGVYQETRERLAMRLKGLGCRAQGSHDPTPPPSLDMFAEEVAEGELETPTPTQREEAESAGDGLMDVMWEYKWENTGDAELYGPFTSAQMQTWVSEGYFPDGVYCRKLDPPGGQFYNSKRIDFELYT
UniProt Q9CX53: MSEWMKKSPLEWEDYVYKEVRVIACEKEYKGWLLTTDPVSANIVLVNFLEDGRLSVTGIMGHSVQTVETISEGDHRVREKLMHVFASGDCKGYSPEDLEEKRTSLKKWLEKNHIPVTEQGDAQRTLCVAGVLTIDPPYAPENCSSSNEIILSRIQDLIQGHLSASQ
UniProt Q9CWX4: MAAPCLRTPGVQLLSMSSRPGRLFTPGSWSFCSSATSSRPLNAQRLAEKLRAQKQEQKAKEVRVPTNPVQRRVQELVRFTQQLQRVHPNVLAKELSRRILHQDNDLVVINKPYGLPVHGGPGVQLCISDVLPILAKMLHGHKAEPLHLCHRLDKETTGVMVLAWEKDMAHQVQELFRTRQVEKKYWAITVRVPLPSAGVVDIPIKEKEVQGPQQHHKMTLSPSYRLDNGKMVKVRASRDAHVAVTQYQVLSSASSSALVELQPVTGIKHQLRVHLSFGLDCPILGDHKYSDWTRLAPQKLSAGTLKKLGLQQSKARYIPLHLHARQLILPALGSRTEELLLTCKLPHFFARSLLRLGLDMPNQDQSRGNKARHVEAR
UniProt Q9CWV0, whole entry: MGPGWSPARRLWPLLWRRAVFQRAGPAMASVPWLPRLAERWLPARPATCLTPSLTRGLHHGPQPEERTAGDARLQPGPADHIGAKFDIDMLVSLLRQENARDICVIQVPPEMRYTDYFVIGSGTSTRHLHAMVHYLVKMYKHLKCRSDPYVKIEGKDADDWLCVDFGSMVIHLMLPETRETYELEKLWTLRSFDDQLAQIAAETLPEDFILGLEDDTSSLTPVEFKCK
UniProt Q9CR95: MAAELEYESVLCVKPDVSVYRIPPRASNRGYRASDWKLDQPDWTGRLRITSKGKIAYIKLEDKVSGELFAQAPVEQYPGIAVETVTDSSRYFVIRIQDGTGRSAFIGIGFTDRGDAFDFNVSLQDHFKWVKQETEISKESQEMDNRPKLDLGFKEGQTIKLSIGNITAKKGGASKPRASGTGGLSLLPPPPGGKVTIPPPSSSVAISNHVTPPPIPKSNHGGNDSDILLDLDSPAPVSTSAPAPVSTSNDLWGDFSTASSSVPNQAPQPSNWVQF

Compound: CN[C@@H]1C[C@H]2O[C@@](C)([C@@H]1OC)n1c3ccccc3c3c4c(c5c6ccccc6n2c5c31)C(=O)NC4 [staurosporine]
Assay: log2 fold change of tryptic peptide abundance, ligand vs vehicle (limited proteolysis) (log2 ratio); higher = more trypsin-susceptible (destabilized)
Details: ligand concentration: 20 uM; sample: mouse liver crude lysate; replicate design: treated separately

Target	log2 fold change
UniProt Q9CYQ7 (peptide sequence: GQAQTEDGHTDR, peptide start residue: 389)	-0.32
UniProt Q9CXS4 (peptide sequence: AQHTFCKRCGVQSFYTPR, peptide start residue: 188)	-0.235
UniProt Q9CZH3 (peptide sequence: VLLGQDEPLIHVFAK, peptide start residue: 66)	0.314
UniProt Q9CZD5 (peptide sequence: DAFSNTGRK, peptide start residue: 70)	-0.363
UniProt Q9CYW4 (peptide sequence: AQSHNFPNYGLSR, peptide start residue: 55)	0.192
UniProt Q9CZJ9 (peptide sequence: SENEWNQTR, peptide start residue: 50)	-0.634
UniProt Q9CX48 (peptide sequence: LLLQSIGETNIEKK, peptide start residue: 63)	0.0147
UniProt Q9CYA0 (peptide sequence: YEFSEIR, peptide start residue: 66)	0.126
UniProt Q9CZY3 (peptide sequence: AATTGSGVKVPR, peptide start residue: 2)	0.175
UniProt Q9CYZ6 (peptide sequence: RLDQAHR, peptide start residue: 49)	0.479
UniProt Q9CZX9 (peptide sequence: FKWAIELSGPGGGSR, peptide start residue: 15)	0.0837
UniProt Q9CR59 (peptide sequence: LQQQALEAR, peptide start residue: 105)	-0.11
UniProt Q9D0D5 (peptide sequence: DRAATAAGAAGLAGGHHR, peptide start residue: 219)	-0.631
UniProt Q9CZG9 (peptide sequence: VIPDSDAHR, peptide start residue: 77)	-0.341
UniProt Q9CY45 (peptide sequence: EAIDAAGEGGR, peptide start residue: 66)	-0.498
UniProt Q9CZU4 (peptide sequence: LNPQVLQCLTK, peptide start residue: 215)	0.14
UniProt Q9CR89 (peptide sequence: LGSYKPVR, peptide start residue: 349)	0.555
UniProt Q9CR83 (peptide sequence: ITEYHLLK, peptide start residue: 36)	0.182

Target	log2 fold change
UniProt Q9CZX8 (peptide sequence: VLQALEGLK, peptide start residue: 103)	0.096
UniProt Q9CZ57 (peptide sequence: TLALLQTGCCR, peptide start residue: 185)	0.342
UniProt Q9CY16 (peptide sequence: HSPLTQLGPAK, peptide start residue: 85)	0.306
UniProt Q9CX11 (peptide sequence: KKVGGPNPLSCLK, peptide start residue: 198)	0.207
UniProt Q9CXJ1 (peptide sequence: LQDLVSPVYSYLWTRPAVHR, peptide start residue: 413)	0.259
UniProt Q9D0T2 (peptide sequence: CVAFIGQAR, peptide start residue: 96)	0.0983
UniProt Q9CWK3 (peptide sequence: LSGLADQMVAR, peptide start residue: 203)	0.0989
UniProt Q9CX53 (peptide sequence: GYSPEDLEEK, peptide start residue: 92)	-0.205
UniProt Q9CR98 (peptide sequence: KMQGLMFR, peptide start residue: 27)	0.141
UniProt Q9D067 (peptide sequence: SHAPVSADVELRPSSK, peptide start residue: 145)	0.251
UniProt Q9CZ04 (peptide sequence: HLSVVTLAAK, peptide start residue: 98)	-0.303
UniProt Q9CRA8 (peptide sequence: RADANLLTDTGTESSPR, peptide start residue: 6)	-0.132
UniProt Q9CWX4 (peptide sequence: VPTNPVQR, peptide start residue: 64)	0.172
UniProt Q9CXD6 (peptide sequence: KENLPLSVSR, peptide start residue: 134)	-0.0946
UniProt Q9D009 (peptide sequence: GGLTPEETTR, peptide start residue: 63)	0.0461
UniProt Q9CWV0 (peptide sequence: LQPGPADHIGAK, peptide start residue: 74)	-0.11
UniProt Q9CR95 (peptide sequence: LDLGFKEGQTIK, peptide start residue: 149)	-0.152

Quoted from above (two entries):
Target	log2 fold change
UniProt Q9CZH3 (peptide sequence: VLLGQDEPLIHVFAK, peptide start residue: 66)	0.314
UniProt Q9CZD5 (peptide sequence: DAFSNTGRK, peptide start residue: 70)	-0.363
